Measured values as given in patent US8501759B2, “Use of fibrates” (Fournier Laboratories Ireland Limited, priority 2009, dated 2013).
For at least one compound, name, drawing or mass did not settle the structure.

Tests used:
[1] = system: patients with sleep apnea syndrome; assay: Laboratory efficacy variables (lipids, glucose, fibrinogen, insulin); format: in vivo, human
Protocol: Secondary variables: % change from baseline (V2) in fasting and post-prandial TG, total cholesterol (TC), high-density lipoprotein cholesterol (HDL-C), fasting plasma glucose (FPG), fibrinogen and insulin.
TC, TG, HDL-C, glucose, fibrinogen and insulin were measured at inclusion and during the 2 hospital admissions before a lipid rich breakfast. Insulin was also measured before the lipid rich breakfast, each morning following the sleep study.
Post-prandial TG were measured 4 hours after a lipid rich breakfast.

[2] = system: patients with sleep apnea syndrome; assay: Sustained attention test; details: end of treatment
[3] = system: patients with sleep apnea syndrome; assay: Overnight sleep study: pulse oximetry (SpO2, desaturations); format: in vivo, human
Description: (§1) Primary variables: number of obstructive apneas, of central apneas, of mixed apneas, total number of apneas, index of apnea per sleep hour, total number of hypopneas, index of hypopnea per sleep hour, index of apnea/hypopnea per sleep hour, total number of desaturations per sleep hour (with a variation of at least 3-4%), and percentage of time spent with SpO2<90%.
(§2) Variables assessed as complementary analyses: cumulated duration of apnea, mean duration of apnea, duration of the longest apnea, number of non cortical micro-awakening indicators related to respiratory events/hour, number of non cortical micro-awakening indicators related to respiratory events, oxygen saturation in blood measured by pulse oximetry (SpO2) in wake state, mean SpO2 on sleep recording, minimum value of SpO2, percentage of time spent with SpO2<80%, percentage of time spent with SpO2<85%, number of tachycardia, mean duration of tachycardia, number of bradycardia, mean duration of bradycardia, mean pulse rate, standard deviation pulse rate, minimum pulse rate, maximum pulse rate, decrease in daytime sleepiness assessed by the ESS, vigilance tests (reflexive visually guided saccades, antisaccades and sustained attention test).
Desaturation episodes were the markers of respiratory impairment. All-night recordings of arterial oxygen saturation were obtained using a cardio-respiratory pulse oximeter attached to the finger (SpO2).
Severity of obstructive sleep apnea was measured by the number of falls in SpO2 of more than 3-4% per hour of sleep. The equipment automatically selected the desaturation threshold (3 or 4%) according to the baseline SpO2 value. To further define the severity of OSA, the lowest SpO2 point and the percentage of time spent with SpO2<90% was determined.

[4] = system: patients with sleep apnea syndrome; assay: Reflexive visually guided saccades and antisaccades; format: in vivo, human; details: in the 2 groups; no statistically significant differences between fenofibrate and placebo
[5] = system: patients with sleep apnea syndrome; assay: Overnight sleep study: apnea/hypopnea recording (CID 102) in the 1-month placebo-controlled study; format: in vivo, human; details: end of treatment
Description: This study comprised 2 phases: • a run-in period of 1 to 5 weeks, on usual diet, • a treatment period of at least 4 weeks (40 days maximum).
as §1
as §2, with “test). […]” for “test).”

[6] = system: normolipidemic patients and dyslipidemic patients; details: plasma fibrinogen; cited from earlier work

CC(C)OC(=O)C(C)(C)Oc1ccc(C(=O)c2ccc(Cl)cc2)cc1 [Fenofibrate, fenofibrate]
Changes in insulin, difference between the 2 groups ([1]; changes highly variable): no statistically significant difference | Fasting TG, fenofibrate compared with placebo ([1]; end of treatment): significantly reduced | TC, fenofibrate compared with placebo ([1]; end of treatment): significantly reduced | fibrinogen, fenofibrate compared with placebo ([1]; end of treatment): significantly reduced | post-prandial TG, fenofibrate compared with placebo ([1]; end of treatment): significantly reduced | Changes in HDL-C ([1]; patients who had baseline values close to normal): minor | omissions in sustained attention test, fenofibrate vs placebo [2]: statistically significant reduction | percentage of time during sleep with SpO2<90%, fenofibrate vs placebo ([3]; end of treatment, p=0.007): significant reduction | difference between the groups for the mean of SpO2 on sleep recording ([3]; p=0.019): statistically significant | difference between the groups for the percentage of time with SpO2<85% ([3]; p=0.042): statistically significant | changes in reflexive visually guided saccades and antisaccades [4]: no meaningful changes | number of non cortical micro-awakening indicators related to respiratory events, fenofibrate vs placebo ([5]; p=0.005): significantly reduced | obstructive apneas, fenofibrate group compared with placebo group ([5]; p=0.048): significant reduction | fibrinogen-lowering effect [6]: −7% to −17%
